Data on two substances can be found in publication PMC12060747.

Chains of the proteins cited; added tags and fusions are not shown.
UniProt P93002: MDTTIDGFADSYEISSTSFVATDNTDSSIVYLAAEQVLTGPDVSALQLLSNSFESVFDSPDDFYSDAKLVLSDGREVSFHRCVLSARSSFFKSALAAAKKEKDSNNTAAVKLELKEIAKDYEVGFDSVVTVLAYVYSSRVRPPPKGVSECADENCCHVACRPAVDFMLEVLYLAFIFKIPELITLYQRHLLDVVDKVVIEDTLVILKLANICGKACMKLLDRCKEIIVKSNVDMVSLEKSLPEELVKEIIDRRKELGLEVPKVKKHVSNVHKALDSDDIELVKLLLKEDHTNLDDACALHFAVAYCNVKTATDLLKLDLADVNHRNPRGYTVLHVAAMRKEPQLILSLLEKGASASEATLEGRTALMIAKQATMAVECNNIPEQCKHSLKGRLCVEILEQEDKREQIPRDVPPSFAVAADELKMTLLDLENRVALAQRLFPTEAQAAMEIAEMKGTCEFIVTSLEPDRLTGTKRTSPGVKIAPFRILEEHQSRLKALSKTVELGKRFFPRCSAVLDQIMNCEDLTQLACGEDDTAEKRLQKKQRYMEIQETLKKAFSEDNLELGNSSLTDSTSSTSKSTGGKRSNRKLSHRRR
UniProt P05804: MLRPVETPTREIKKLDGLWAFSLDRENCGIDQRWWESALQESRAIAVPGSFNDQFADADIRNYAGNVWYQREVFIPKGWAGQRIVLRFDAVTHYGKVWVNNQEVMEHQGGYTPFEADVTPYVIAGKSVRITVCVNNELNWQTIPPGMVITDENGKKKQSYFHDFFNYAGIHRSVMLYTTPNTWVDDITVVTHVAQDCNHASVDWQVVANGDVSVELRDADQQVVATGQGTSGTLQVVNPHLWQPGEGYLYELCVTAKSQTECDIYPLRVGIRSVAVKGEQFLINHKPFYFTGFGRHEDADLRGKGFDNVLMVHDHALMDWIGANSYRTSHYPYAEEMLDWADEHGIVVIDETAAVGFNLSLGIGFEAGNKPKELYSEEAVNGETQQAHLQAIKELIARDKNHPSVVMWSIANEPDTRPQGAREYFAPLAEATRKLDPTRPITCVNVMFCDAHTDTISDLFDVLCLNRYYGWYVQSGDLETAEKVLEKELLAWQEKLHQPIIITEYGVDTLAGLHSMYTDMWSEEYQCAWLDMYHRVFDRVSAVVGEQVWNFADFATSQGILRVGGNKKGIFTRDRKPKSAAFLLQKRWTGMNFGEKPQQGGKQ

No constants are given. Whether binding was seen depends on the method and setting. In cells and extracts the contact can be indirect.

Test [1] concerns the target YFP‐tagged NPR1 (Arabidopsis thaliana) (UniProt P93002). Kind of test: co-IP; YFP‐tagged bait and FLAG‐4×Myc‐tagged prey coexpressed in N. benthamiana leaves; GFP‐Trap agarose, 4°C for 3 h, IP buffer (50 mM Tris‐HCl pH7.5, 150 mM NaCl, 0.1% TritonX‐100, 0.1% NP‐40); blots with anti‐GFP and anti‐Myc.
Test [2] has as its target NPR1 tagged with the N‐terminal portion of YFP (Arabidopsis thaliana) (UniProt P93002). In words: split reporter; BiFC: YN‐ and YC‐tagged proteins under the CaMV 35S promoter, agroinfiltrated N. benthamiana leaves; confocal microscopy of epidermal cells at 2 dpi.

Take “FLAG‐4×Myc‐tagged GUS (from UniProt P05804 1-603) (enzyme)”: the binding result in test [1] is reported as “no binding”.
In the case of “β‐glucuronidase (GUS), YC‐tagged (from UniProt P05804 1-603) (enzyme)”, in test [2], the binding result is “no binding”.
